The list shows only some results of the screen, not a fair sample: it gathers tests that were run many times, whatever their T/C, doses with no T/C, and many T/C values between a quarter and a half above the control. Further doses and runs are listed elsewhere. T/C: endpoint of the treated group in % of that of the vehicle group. Schedule codes are those of the source, read here as Q, the interval in days (D) or hours (H), X, the number of doses. Some entries hold several experiments; the results are listed from low to high. Some T/C values carry the count of animals alive at the toxicity check (mostly the fifth day); without a count, all were alive then. Some entries give survivors of the animals treated and no T/C: the source files T/C as zero there, which appears to mark a toxic dose or a test without result, not a measured value. Survivors were counted at the toxicity check, usually on the fifth day, unless a day is given; later deaths do not show.
System: MX-1 breast xenograft, intrarenal, nude mice, tumor weight
Assay: NCI In Vivo Anticancer Drug Screen. Data for tumor model Human Mammary Carcinoma MX-1 Xenograft (intrarenal inoculation) in NU/NU BALB/C (nude) mice
Conditions: T/C endpoint: mean tumor weight change, higher T/C = larger tumour; for T/C: evaluated on day 11
In short: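 Efficacy in vivo: tumor measurement or survival of treated animals divided by that of vehicle-dosed controls.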

[1] = dose: 150.0 mg/kg/injection, schedule: Q04DX003 (ip), vehicle: Klucel (hydroxypropylcellulose) (HPC)
[2] = dose: 300.0 mg/kg/injection, schedule: Q04DX003 (ip), vehicle: Klucel (hydroxypropylcellulose) (HPC)
[3] = dose: 600.0 mg/kg/injection, schedule: Q04DX003 (ip), vehicle: Klucel (hydroxypropylcellulose) (HPC)
[4] = dose: 300.0 mg/kg/injection, schedule: Q04DX003 (ip), vehicle: saline

`O=C(NC(Cc1ccc(I)cc1)C(=O)O)c1ccc(Br)cc1` (stereo not drawn) was tested, and the T/C (dose: 37.5 mg/kg/injection, schedule: Q04DX003 (ip), vehicle: sodium bicarbonate) was 128 % of control and the survivor count (dose: 300.0 mg/kg/injection, schedule: Q04DX003 (ip), vehicle: sodium bicarbonate) was 1 of 6 on day 11.
With `COc1cc2c(c3c1c(=O)c1cccc(F)c1n3C)C=CC(C)(C)O2` the survivor count [1] was 1 of 6 on day 11, the survivor count [2] was 1 of 6 on day 11 and the survivor count [3] was 0 of 6 on day 11.
For `Cc1ccc(C2=CSC3=NCCN23)cc1Cl`, the survivor count (dose: 75.0 mg/kg/injection, schedule: Q04DX003 (ip), vehicle: saline) was 0 of 6 on day 11, the survivor count (dose: 150.0 mg/kg/injection, schedule: Q04DX003 (ip), vehicle: saline) was 0 of 6 on day 11 and the survivor count [4] was 0 of 6 on day 11.
In the case of `O=C/C(Cl)=C(/Cl)C(=O)O`, the survivor count (dose: 80.0 mg/kg/injection, schedule: Q01DX010 (sc), vehicle: saline with Tween-80) is reported as 0 of 3 on day 11.
For `Cc1noc2nc(-c3ccccc3)cc(N3CCN(C)CC3)c12`, the survivor count (dose: 600.0 mg/kg/injection, schedule: Q04DX003 (ip), vehicle: other) was 1 of 6 on day 11.
For `Nc1ncn(C2OC(CO)C(O)C2O)c(=O)n1` (stereo not drawn), the survivor count (dose: 1.5 mg/kg/injection, schedule: Q01DX010 (sc), vehicle: saline) was 1 of 3 on day 11.
In the case of `CN=NN(C)C(=O)NC`, the T/C (dose: 108.0 mg/kg/injection, schedule: Q04DX003 (ip), vehicle: saline with Tween-80) is reported as 125 % of control, the survivor count (dose: 180.0 mg/kg/injection, schedule: Q04DX003 (ip), vehicle: saline) is reported as 1 of 6 on day 11 and the T/C (dose: 300.0 mg/kg/injection, schedule: Q04DX003 (ip), vehicle: saline with Tween-80) is reported as 138 % of control. The survivor count [4] was 0 of 6 on day 11 and the survivor count (dose: 500.0 mg/kg/injection, schedule: Q04DX003 (ip), vehicle: saline) was 0 of 6 on day 11.
`N#CC(C#N)=NNc1ccc2cn[nH]c2c1` was tested, and the T/C (dose: 25.0 mg/kg/injection, schedule: Q04DX003 (ip), vehicle: Klucel (hydroxypropylcellulose) (HPC)) was 139 % of control, the survivor count [1] was 2 of 6 on day 11 and the survivor count [2] was 2 of 6 on day 11. For the same compound, the survivor count [3] was 0 of 6 on day 11 and the survivor count (dose: 1200.0 mg/kg/injection, schedule: Q04DX003 (ip), vehicle: Klucel (hydroxypropylcellulose) (HPC)) was 0 of 5 on day 11.
`Cn1c(-c2ccc(/C=N\N3CCN(/N=C/c4ccc(-c5c[n+]6ccsc6n5C)cc4)CC3)cc2)c[n+]2ccsc12` was tested, and the survivor count (dose: 6.0 mg/kg/injection, schedule: Q04DX003 (ip), vehicle: saline with Tween-80) was 1 of 6 on day 11, the survivor count (dose: 12.0 mg/kg/injection, schedule: Q04DX003 (ip), vehicle: saline with Tween-80) was 0 of 6 on day 11 and the survivor count (dose: 24.0 mg/kg/injection, schedule: Q04DX003 (ip), vehicle: saline with Tween-80) was 0 of 6 on day 11.
For `CCC(NC(N)=O)C(CC)NC(N)=O` (stereo not drawn), the survivor count (dose: 50.0 mg/kg/injection, schedule: Q04DX003 (ip), vehicle: saline with Tween-80) was 3 of 6 on day 11.
In the case of `O=C(Nc1cccc(O)c1)C(Cl)=C(Cl)Cl`, the survivor count (dose: 50.0 mg/kg/injection, schedule: Q04DX003 (ip), vehicle: other) is reported as 0 of 6 on day 11, the survivor count (dose: 100.0 mg/kg/injection, schedule: Q04DX003 (ip), vehicle: DMSO) is reported as 0 of 6 on day 11 and the survivor count (dose: 100.0 mg/kg/injection, schedule: Q04DX003 (ip), vehicle: other) is reported as 0 of 5 on day 11.
For `COC(=O)Nc1nc2ccc(C3(c4ccc(F)cc4)OCCO3)cc2[nH]1`, the T/C (dose: 1200.0 mg/kg/injection, schedule: Q04DX003 (sc), vehicle: saline with Tween-80) was 143 % of control.
For `C[C@@](O)(/C=C/[C@H]1CC=CC(=O)O1)[C@@H](C[C@@H](O)\C=C/C=C\C=C\CO)OP(=O)(O)O`, the T/C (dose: 3.0 mg/kg/injection, schedule: Q01DX009 (ip), vehicle: other) was 128 % of control, the survivor count (dose: 75.0 mg/kg/injection, schedule: Q04DX003 (sc), vehicle: other) was 0 of 6 on day 11 and the survivor count (dose: 150.0 mg/kg/injection, schedule: Q04DX003 (sc), vehicle: other) was 0 of 6 on day 11. For the same compound, the survivor count (dose: 300.0 mg/kg/injection, schedule: Q04DX003 (sc), vehicle: other) was 0 of 6 on day 11.
`COc1cc(Cc2nccc3cc(OC)c(OC)cc23)c(C(C)=O)cc1OC` was tested, and the survivor count (dose: 2400.0 mg/kg/injection, schedule: Q04DX003 (sc), vehicle: saline) was 3 of 6 on day 11.
With `CN(C)N=Nc1ccc(C(=O)O)cc1` the survivor count (dose: 800.0 mg/kg/injection, schedule: Q04DX003 (ip), vehicle: saline) was 0 of 6 on day 11.
In the case of `CCN(CC)Cc1cc2[nH]c3c4ccc(Cl)cc4ncc3c2cc1OC`, the T/C (dose: 150.0 mg/kg/injection, schedule: Q04DX003 (sc), vehicle: saline with Tween-80) is reported as 137 % of control [5 of 6 alive on day 11] and the survivor count (dose: 600.0 mg/kg/injection, schedule: Q04DX003 (sc), vehicle: saline with Tween-80) is reported as 0 of 6 on day 11.
With `C=COC(=O)C(Cc1ccccc1)NC(=O)OCc1ccccc1` (stereo not drawn) the survivor count (dose: 2400.0 mg/kg/injection, schedule: Q04DX003 (sc), vehicle: saline with Tween-80) was 1 of 6 on day 11.
In the case of `COc1cc2c(oc(=O)c3cc(C)cc(OC)c32)c2c(C3OC(C)C(O)C(C)(O)C3O)ccc(O)c12` (stereo not drawn), the T/C (dose: 6.25 mg/kg/injection, schedule: Q04DX003 (ip), vehicle: DMSO) is reported as 132 and 137 % of control.
`Cc1cc2c(=O)cc(-c3ccccc3)oc2c(C(=O)O)c1C` was tested, and the survivor count (dose: 500.0 mg/kg/injection, schedule: Q04DX003 (ip), vehicle: saline with Tween-80) was 1 of 6 on day 11 and the survivor count (dose: 1000.0 mg/kg/injection, schedule: Q04DX003 (ip), vehicle: saline with Tween-80) was 0 of 6 on day 11.
In the case of `NC(=O)C1=CC2C3C=CC2(O)C(=O)OC3O1` (stereo not drawn), the survivor count [1] is reported as 2 of 6 on day 11 and the survivor count [2] is reported as 0 of 6 on day 11.
`NC(CCl)=NCC12CC3CC(CC(C3)C1)C2` was tested, and the T/C (dose: 18.75 mg/kg/injection, schedule: Q04DX003 (sc), vehicle: Klucel (hydroxypropylcellulose) (HPC)) was 135 % of control and the survivor count (dose: 150.0 mg/kg/injection, schedule: Q04DX003 (sc), vehicle: Klucel (hydroxypropylcellulose) (HPC)) was 2 of 6 on day 11.
For `CCC1(O)C(=O)OCc2c1cc1n(c2=O)Cc2cc3cc(N)ccc3nc2-1` (stereo not drawn), the survivor count (dose: 15.0 mg/kg/injection, schedule: Q04DX003 (ip), vehicle: suspension in saline) was 3 of 6 on day 11, the survivor count (dose: 30.0 mg/kg/injection, schedule: Q04DX003 (ip), vehicle: suspension in saline) was 0 of 6 on day 11 and the survivor count (dose: 60.0 mg/kg/injection, schedule: Q04DX003 (ip), vehicle: suspension in saline) was 0 of 6 on day 11.
In the case of `O=P1(NCCCl)OCCCN1CCCl` (stereo not drawn), the survivor count (dose: 75.0 mg/kg/injection, schedule: Q04DX003 (sc), vehicle: saline) is reported as 3 of 6 on day 11, the survivor count (dose: 300.0 mg/kg/injection, schedule: Q04DX003 (sc), vehicle: saline) is reported as 0 of 6 on day 11 and the survivor count (dose: 600.0 mg/kg/injection, schedule: Q04DX003 (sc), vehicle: saline) is reported as 0 of 6 on day 11.
In the case of `Nc1nc([Se]c2nc(N)nc3c2ncn3C2OC(CO)C(O)C2O)c2ncn(C3OC(CO)C(O)C3O)c2n1` (stereo not drawn), the survivor count (dose: 800.0 mg/kg/injection, schedule: Q04DX003 (ip), vehicle: distilled water + Tween-80) is reported as 2 of 6 on day 11.
With `CN(C)C(=O)Nc1ccc(Cl)cc1` the survivor count (dose: 1200.0 mg/kg/injection, schedule: Q04DX003 (ip), vehicle: suspension in saline) was 1 of 5 on day 11.

Reference: PubChem BioAssay AID298 (DTP/NCI, 2004)
